From article PMC6997366

Protein sequences, listed by entry. Tags and fused reporters are not part of them.
UniProt Q9Y4K3: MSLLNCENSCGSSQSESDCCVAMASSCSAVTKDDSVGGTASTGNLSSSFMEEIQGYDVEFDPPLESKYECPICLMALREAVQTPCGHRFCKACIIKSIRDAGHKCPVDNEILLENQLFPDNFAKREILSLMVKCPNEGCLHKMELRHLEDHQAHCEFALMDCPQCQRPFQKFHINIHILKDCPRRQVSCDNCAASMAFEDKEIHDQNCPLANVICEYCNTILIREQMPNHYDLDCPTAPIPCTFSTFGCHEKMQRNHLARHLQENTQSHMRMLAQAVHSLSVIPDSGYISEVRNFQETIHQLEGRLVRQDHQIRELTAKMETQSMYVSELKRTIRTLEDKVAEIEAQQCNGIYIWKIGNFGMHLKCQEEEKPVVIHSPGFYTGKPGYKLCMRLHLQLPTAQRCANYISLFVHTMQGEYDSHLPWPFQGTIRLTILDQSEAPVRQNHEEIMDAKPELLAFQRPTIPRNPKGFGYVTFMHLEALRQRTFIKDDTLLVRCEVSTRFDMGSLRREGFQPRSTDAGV

T1: A20 (Tumor necrosis factor alpha-induced protein 3), expressed from pcDNA3-A20 (UniProt P21580)
T1 sequence: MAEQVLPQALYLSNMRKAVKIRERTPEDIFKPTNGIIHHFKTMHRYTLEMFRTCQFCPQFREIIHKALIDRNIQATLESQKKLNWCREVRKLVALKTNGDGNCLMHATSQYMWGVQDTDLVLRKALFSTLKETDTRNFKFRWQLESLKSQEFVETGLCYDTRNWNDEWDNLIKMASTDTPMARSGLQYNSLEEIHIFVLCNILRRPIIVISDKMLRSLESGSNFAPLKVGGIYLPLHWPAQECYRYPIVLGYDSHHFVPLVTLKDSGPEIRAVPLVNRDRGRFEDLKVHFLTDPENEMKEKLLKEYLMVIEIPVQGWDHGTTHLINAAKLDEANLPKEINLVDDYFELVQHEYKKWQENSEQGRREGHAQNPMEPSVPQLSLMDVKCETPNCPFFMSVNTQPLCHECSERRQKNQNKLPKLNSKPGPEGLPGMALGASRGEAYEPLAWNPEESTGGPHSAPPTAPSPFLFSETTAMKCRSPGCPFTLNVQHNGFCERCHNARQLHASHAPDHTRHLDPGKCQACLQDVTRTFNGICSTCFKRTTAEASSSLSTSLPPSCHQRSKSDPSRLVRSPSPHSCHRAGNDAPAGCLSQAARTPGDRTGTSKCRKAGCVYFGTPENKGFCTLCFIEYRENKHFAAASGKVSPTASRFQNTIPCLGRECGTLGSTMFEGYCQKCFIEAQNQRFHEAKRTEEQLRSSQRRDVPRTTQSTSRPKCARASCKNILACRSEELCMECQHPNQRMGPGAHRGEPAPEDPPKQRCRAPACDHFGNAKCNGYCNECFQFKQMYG

B1: phosphofructokinase, liver type (PFKL), endogenous (enzyme, UniProt P17858 1-780)
chain: MAAVDLEKLRASGAGKAIGVLTSGGDAQGMNAAVRAVTRMGIYVGAKVFLIYEGYEGLVEGGENIKQANWLSVSNIIQLGGTIIGSARCKAFTTREGRRAAAYNLVQHGITNLCVIGGDGSLTGANIFRSEWGSLLEELVAEGKISETTARTYSHLNIAGLVGSIDNDFCGTDMTIGTDSALHRIMEVIDAITTTAQSHQRTFVLEVMGRHCGYLALVSALASGADWLFIPEAPPEDGWENFMCERLGETRSRGSRLNIIIIAEGAIDRNGKPISSSYVKDLVVQRLGFDTRVTVLGHVQRGGTPSAFDRILSSKMGMEAVMALLEATPDTPACVVTLSGNQSVRLPLMECVQMTKEVQKAMDDKRFDEATQLRGGSFENNWNIYKLLAHQKPPKEKSNFSLAILNVGAPAAGMNAAVRSAVRTGISHGHTVYVVHDGFEGLAKGQVQEVGWHDVAGWLGRGGSMLGTKRTLPKGQLESIVENIRIYGIHALLVVGGFEAYEGVLQLVEARGRYEELCIVMCVIPATISNNVPGTDFSLGSDTAVNAAMESCDRIKQSASGTKRRVFIVETMGGYCGYLATVTGIAVGADAAYVFEDPFNIHDLKVNVEHMTEKMKTDIQRGLVLRNEKCHDYYTTEFLYNLYSSEGKGVFDCRTNVLGHLQQGGAPTPFDRNYGTKLGVKAMLWLSEKLREVYRKGRVFANAPDSACVIGLKKKAVAFSPVTELKKDTDFEHRMPREQWWLSLRLMLKMLAQYRISMAAYVSGELEHVTRRTLSMDKGF

Biological target: T1, A20 (Tumor necrosis factor alpha-induced protein 3), expressed from pcDNA3-A20
Experiment: affinity purification with mass spectrometry; Huh7 cells transduced with pcDNA3-A20 or empty vector, MG132 (10 uM) for 8 h; A20 pulled down by IP with anti-A20 antibody and protein G agarose at 4 °C; LC-MS/MS

Molecule | binding
TRAF6 (from UniProt Q9Y4K3 1-522) | binds
B1 | binds

These are yes or no findings as the source states them, for the method shown. In cells and extracts the contact can be indirect. Here binding means that the protein was enriched with, or labelled near, the bait; the list need not be complete.
